Laboratory results reported in the supplement of paper PMC8007513.
This is one part of the list. Most values come without repeats; read them as rough.

Test system: Saccharomyces cerevisiae BY4743
Assay: growth (OD600) relative to untreated control; higher = less growth inhibition
Conditions: compound concentration: 133 uM; 20 h
Method: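 NMCCC compounds (133 uM, no IPBC) tested alone against Saccharomyces cerevisiae BY4743 in YPD, 96-well plates, starting OD600 ~0.1. Growth was read as OD600 at 20 h and expressed as % of the untreated control. Single pass.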

Row | Structure (SMILES) | growth [%]
1 | CN(C(=O)CSc1nnc(-c2cccnc2)o1)c1ccc(F)cc1 | 93.8
2 | CCN(C(=O)NCc1noc2ccc(C)cc12)c1cccc(Cl)c1 | 103
3 | Cn1c(CN2CCOCC2)c(C#N)c2ccccc21 | 103
4 | COC(=O)COc1ccc(NC(=O)c2ccc(O)nn2)cc1 | 99.3
5 | CCCn1c(=O)[nH]c(=O)c2c3c(cnc21)C(=O)CCC3 | 103
6 | CSc1nc(NCCN(C)C)c(C#N)c(-c2ccc(C(C)(C)C)cc2)n1 | 4.82
7 | O=C(COC(=O)c1[nH]nc2ccccc12)NC(=O)NC1CCCCC1 | 90.5
8 | Cc1ccc(C(NS(=O)(=O)c2ccc(S(C)(=O)=O)cc2)c2cccs2)cc1 (stereo not drawn) | 87
9 | COc1cc(OC)c(NC(=O)NC(C(=O)N2CCc3ccccc32)C(C)C)cc1Cl (stereo not drawn) | 104
10 | COC(=O)c1cc(CNC(=O)CSCc2c(C)noc2C)ccc1OC | 95.5
11 | Cc1cc(C)c(S(=O)(=O)N2CCCCC2)cc1N(C)S(=O)(=O)c1ccc(Cl)cc1 | 103
12 | Cc1nc2cc(NC(C)C(=O)NCC(F)(F)F)ccc2o1 (stereo not drawn) | 99.6
13 | CCOC(=O)N1CCN(C(=O)c2noc3c2CCCCC3)CC1 | 89.1
14 | COc1ccc(S(=O)(=O)Nc2c(C)cc(C)cc2C)cc1N(C)S(C)(=O)=O | 98.7
15 | CCn1c(SCC(=O)Nc2cccc(C#N)c2)nnc1N1CCOCC1 | 82.9
16 | CC1CCN(c2ccc(NC(=O)CSc3nc(C(C)C)n[nH]3)cc2)CC1 | 108
17 | Cc1nn(C)c(C)c1CNS(=O)(=O)c1ccc2c(c1)oc(=O)n2C | 86.9
18 | CC(C)CCNc1cc(-c2ccccc2)nc2nncn12 | 107
19 | Cc1ccc2c(c1)N(C(=O)Nc1ccc(Br)cc1)CCO2 | 90.4
20 | CCC(=O)N1CCc2cc(CNS(=O)(=O)N(C)C)ccc21 | 87.3
21 | COC(=O)c1c(NC(=O)CSc2nc(O)c3ccccc3n2)sc(C)c1C | 104

Row | Structure (SMILES) | growth [%]
22 | CCOC(=O)N1CCN(C(=O)CN(c2ccccc2)S(=O)(=O)c2ccc(OCC)cc2)CC1 | 103
23 | CCOC(=O)c1ncn(-c2ccc(OC)cc2)c1N | 98.4
24 | Cc1ccc2c(c1)C(=O)CCCS2(=O)=O | 112
25 | Cc1cc2nc(O)c(O)nc2cc1S(=O)(=O)NCc1ccco1 | 103
26 | COc1ccc(-c2onc(C)c2C)cc1S(=O)(=O)N(C)C(C)CCc1ccco1 (stereo not drawn) | 70.7
27 | CCCSc1nsc(NC(=O)COC(=O)c2occc2C)n1 | 91.7
28 | Cc1ccnc(NS(=O)(=O)c2ccc(NS(=O)(=O)Cc3ccccc3)cc2)n1 | 98.3
29 | N#Cc1ccsc1NC(=O)CCSc1nnnn1C1CC1 | 89.5
30 | CC(C)[C@H](NS(=O)(=O)c1ccc2c(c1)OCCO2)C(=O)NC1CCCCCC1 | 93.7
31 | CCOC(=O)c1ccc(N2CCN(C(=O)COc3ccccc3)CC2)nc1 | 105
32 | CCn1cnnc1CNC(=O)NCc1ccc(NC(=O)C(F)(F)F)cc1 | 105
33 | CCN(CC)S(=O)(=O)c1c(C)nn(Cc2coc(-c3cccs3)n2)c1C | 101
34 | CCN(CC)[S](=O)(=O)C1=CC(=CC=C1C)C/2=N/N(CC(=O)NC3=CC=C(C=C3)C(C)=O)C(=O)/C=C2 | 78.3
35 | CC(C)NC(=O)CNC(=O)CSc1nnc(NCc2ccc(F)cc2)s1 | 112
36 | CCOc1ccc(OCC)c(NC(=O)Nc2ccc3c(c2)N(C)C(=O)CS3)c1 | 94.2
37 | CN(C)S(=O)(=O)c1cccc(CSc2ccc3c(c2)OCCCO3)c1 | 78.4
38 | CC(=O)c1csc(NC(=O)CCc2ccsc2)n1 | 102
39 | COc1ccc(-n2ccnc2SCC(=O)NCC2CN(CC(C)C)CCO2)cc1 (stereo not drawn) | 103
40 | Cc1csc(SCC(=O)N(C)Cc2ccc(C)o2)n1 | 96.9
41 | Cc1cnc(NC(=O)CSc2nnc(CN3CCOCC3)n2C)s1 | 101
42 | N#Cc1ccc(CSc2ccc(S(=O)(=O)N3CCCC3)cn2)cc1 | 85.1

Structures shown so far containing a CF3 group:
Row | Structure (SMILES) | growth [%]
12 | Cc1nc2cc(NC(C)C(=O)NCC(F)(F)F)ccc2o1 (stereo not drawn) | 99.6
32 | CCn1cnnc1CNC(=O)NCc1ccc(NC(=O)C(F)(F)F)cc1 | 105

(further entries)

Row | Structure (SMILES) | growth [%]
43 | Cc1cccc(NC(=O)CCSc2nc3nc(C)ccc3o2)c1 | 106
44 | CCCNC(=O)CN1CCN(C(=O)CCCc2nc3ccccc3s2)CC1 | 93
45 | CCOC(=O)c1sc(NC(=O)C(F)(F)F)c(C(=O)OC)c1C | 96.3
46 | Cc1nc(C)c(CCC(=O)Nc2ccnn2Cc2ccc(C(F)(F)F)cc2)c(O)n1 | 122
47 | Cc1ccc(S(=O)(=O)N(C)c2c(C)ccc(S(=O)(=O)N3CCCC3)c2C)cc1 | 90.6
48 | Cc1cc(C(=O)COc2ncnc3c(Cl)cc(Cl)cc23)c(C)n1C | 80.6
49 | Cc1cc(C)cc(OCC(=O)OC(C)C(=O)Nc2ccccc2C#N)c1 (stereo not drawn) | 99.3
50 | O=C(CC1=CC=CS1)N(C\2C[S](=O)(=O)\C=C2)C3=CC=CC=C3 (stereo not drawn) | 108
51 | O=C(COCC(F)(F)F)NC(c1ccccc1)c1cc2ccccc2o1 (stereo not drawn) | 103
52 | CCC(C(=O)Nc1nc2nc(C)cc(O)n2n1)c1ccccc1 (stereo not drawn) | 83.6
53 | N#Cc1ccc(Oc2ccc(S(=O)(=O)N3CCOCC3)cn2)cc1 | 105
54 | COC(=O)CC(NC(=O)c1sc(-c2ccccn2)nc1C)c1ccc(OC)c(OC)c1 (stereo not drawn) | 101
55 | CCOc1ccc(NC(C)=O)cc1S(=O)(=O)N1CC(C(=O)N(C)C)Oc2ccccc21 (stereo not drawn) | 120
56 | COc1ccc(-c2nnc(SCC(=O)OC(C)C)n2-c2ccccc2)cc1 | 99
57 | COc1cc(NC(=O)c2ccc3c(c2)NC(=O)CS3)cc(OC)c1OC | 107
58 | CCOC(=O)\C1=C(/COC(=O)C2=CC(=NC3=C2C(=NO3)C)C)NC(=O)NC1 | 111
59 | CCCNC(=O)CN1\C(=C/C(=O)[N]2N=C(N=C12)C3=CC=CC=C3C)C | 101
60 | CC(O)CN1C(C2=CC=CC=N2)\C(=C(\O)C1=O)C(=O)C3=CC=C(C)C=C3 (stereo not drawn) | 77.9
61 | Cc1cc(NS(=O)(=O)c2ccc(NC(=O)N[C@H](C(=O)O)C(C)C)cc2)no1 | 105
62 | O=C(Cc1cn2ccccc2n1)Nc1cccc(F)c1 | 103
63 | COc1ccc(CCNC(=O)C2CCC(=O)N2S(=O)(=O)c2ccc(C)cc2)cc1 (stereo not drawn) | 101
